Source: PubChem BioAssay AID1347426 (Functional Genomics Laboratory (NCATS/FGL), 2020)
Out of some 31,000 sequences screened, about 1,400 (4.5%) were called active.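 The calls were made as follows: active = median seed-adjusted z-score above 1 or below -1; inactive = the rest.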 The list shows a part of the results.

Test: Novel Modifiers of Survival Motor Neuron (SMN) Protein: Gene Identification via Genome-wide siRNA Screen;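 also: luminescence tracks full-length SMN protein made from the SMN2 reporter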
Details: HEK293T SMN2-luciferase reporter, siRNA knockdown, 72 h; actives lie on both sides
In short: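 Steps: spot 1 pmol siRNA, add Lipofectamine RNAiMax in serum-free DMEM, seed HEK293T SMN2–luciferase reporter cells; incubate 72 h at 37 °C; add ONE-Glo; normalize luminescence to control siRNA, log10, MAD. Candidates: |MAD| > 1.0.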
In the case of CUGUCUCGCUUCAUCCAUATT against ULK3, the median seed-adjusted z-score is reported as inactive: -0.73.
For GCGUAUUAGAAGACUUGUATT against LRRC17, the median seed-adjusted z-score was inactive: 0.0234.
For GAUCCUAAUAUGAAGUUAUTT against FUBP1, the median seed-adjusted z-score was active: -1.52.
In the case of GUCCAACUGGGAAAAGAUATT against MSRB3, the median seed-adjusted z-score is reported as inactive: -0.218.
For GCUCCAACAUAACAGAAGATT against NR2C2, the median seed-adjusted z-score was inactive: -0.498.
For GCUUCGACGGUAUCCUCUATT against KCNA5, the median seed-adjusted z-score was inactive: 0.206.
In the case of GCUUAACAGUAAUAUGGUUTT against GABRG1, the median seed-adjusted z-score is reported as inactive: 0.312.
In the case of GGAGAACCACAGUUGCUUUTT against IL17RA, the median seed-adjusted z-score is reported as active: -1.29.
In the case of CCAUCUCGAGGGACUAUAATT against SERPINA3, the median seed-adjusted z-score is reported as inactive: 0.125.
For GACUUUGGAUUCGAACUAATT against KCTD15, the median seed-adjusted z-score was inactive: 0.982.
For GCACUAGCCCAACAUCAGATT against ZNF454, the median seed-adjusted z-score was inactive: 0.
With CAUCCUUUUUCAGUACUAATT against LHX6 the median seed-adjusted z-score was inactive: -0.717.
For GGAGCCUUUUGAUAUUGAUTT against C1R, the median seed-adjusted z-score was inactive: -0.541.
For CCUUGUCACAGGUCAAUCATT against VWF, the median seed-adjusted z-score was inactive: 0.159.
For GAUCAACGGCUAUAAGGCATT against DSC3, the median seed-adjusted z-score was inactive: 0.18.
For GGUGCUUCAAUUUAACAGATT against SERPINB10, the median seed-adjusted z-score was inactive: 0.00387.
With GACAAAUACGUAGAGCUCATT against NDUFA7 the median seed-adjusted z-score was inactive: 0.356.
In the case of GGACAUGAUUUCCUACAAUTT against DPT, the median seed-adjusted z-score is reported as inactive: 0.073.
For CGUUUGUCCAGAAGCGGUATT against AFMID, the median seed-adjusted z-score was inactive: -0.515.
With GCGUGAUCCUUGCCUCUAATT against GDPD4 the median seed-adjusted z-score was inactive: 0.0109.
With CCAUCAAAAUCGCAGACUUTT against DDR1 the median seed-adjusted z-score was inactive: -0.166.
In the case of GGAACUUAUUGAGCUUAUUTT against SWAP70, the median seed-adjusted z-score is reported as inactive: -0.704.
With CUAUGGGUCUCGACACUUATT against QPCT the median seed-adjusted z-score was inactive: 0.933.
In the case of GCUGGUACUUCUACCGUCATT against RHBDL1, the median seed-adjusted z-score is reported as inactive: -0.365.
For GCCUUGUCGAAUUCUGUCATT against FOXO3, the median seed-adjusted z-score was inactive: -0.712.
With CGUGGGAUCCAAUACAUAUTT against IAPP the median seed-adjusted z-score was inactive: -0.157.
With GCUCUUUGCCUAUAGCUCATT against RBL1 the median seed-adjusted z-score was inactive: -0.0547.
In the case of CCAGAUCAGUAGGAUUGAATT against OSMR, the median seed-adjusted z-score is reported as inactive: 0.548.
With CGAUGGGUAUGAGCCUGGATT against ATHL1 the median seed-adjusted z-score was inactive: 0.
In the case of GAACCGACAAAAGUAGAUATT against RARB, the median seed-adjusted z-score is reported as inactive: 0.409.
For GAGAGUUCAUUUACCUAAATT against ANGPTL2, the median seed-adjusted z-score was inactive: 0.141.
For CCACGUUCACCAAGAUCUUTT against RBM38, the median seed-adjusted z-score was inactive: 0.0358.
For GCAUUGGAACGAUUCUAAATT against CTPS2, the median seed-adjusted z-score was active: 1.08.
With GACUCCCAAUACAACCCAATT against DDX24 the median seed-adjusted z-score was inactive: 0.246.
In the case of GAAUCUAAGCGAUAAUAAUTT against FSHR, the median seed-adjusted z-score is reported as inactive: -0.462.
In the case of GAACUCCUCGUCUUACUUUTT against CDC2L2, the median seed-adjusted z-score is reported as inactive: 0.153.
With UGACAUACGUGAAAAGUCUTT against ZNF77 the median seed-adjusted z-score was inactive: 0.345.
In the case of GUUAGAACCUGGAAACGUATT against SPAG1, the median seed-adjusted z-score is reported as inactive: 0.413.
In the case of GCAGGACCUUUUAGCAUCUTT against LYL1, the median seed-adjusted z-score is reported as inactive: -0.118.
With CCAUCGACAUGGACACGCATT against JUND the median seed-adjusted z-score was inactive: -0.334.
In the case of GAAUAACCGUUGGUUUAAUTT against U2AF1, the median seed-adjusted z-score is reported as active: 2.08.
In the case of CAGCGGAUCGUGUGAAGAATT against UPF1, the median seed-adjusted z-score is reported as inactive: 0.253.
For GGCAAUCGGUGGUAGUAAATT against PAX6, the median seed-adjusted z-score was inactive: -0.275.
With GGAUGACUAUGAACAUGCATT against RNMT the median seed-adjusted z-score was inactive: -0.281.
With CAACGGCAGGAAAUUCUAATT against KLRA1 the median seed-adjusted z-score was inactive: 0.918.
In the case of GCAACACGCUAGAAGGGUUTT against HAT1, the median seed-adjusted z-score is reported as inactive: -0.622.
In the case of CUACCAUGGUGUACCAACATT against QRICH1, the median seed-adjusted z-score is reported as active: -1.04.
With CUCUGAGUAUGUGACCGAATT against XPNPEP1 the median seed-adjusted z-score was active: -1.5.
In the case of CGGUCUACAGCAUCGAGUATT against IL22RA1, the median seed-adjusted z-score is reported as active: -1.14.
In the case of GCAUUUGGAAGUUACUGUUTT against YAF2, the median seed-adjusted z-score is reported as inactive: 0.
In the case of GACCAACAAUUAAGAACGATT against TRAF3IP3, the median seed-adjusted z-score is reported as inactive: 0.0238.
In the case of CGAUUCUUCUCACCCACAUTT against KCTD21, the median seed-adjusted z-score is reported as inactive: 0.0236.
With CCACGAGUAUUACUACAUCTT against EFNA2 the median seed-adjusted z-score was inactive: -0.314.
For GCUGCAAAAUUCUUGACAATT against DCTN5, the median seed-adjusted z-score was inactive: 0.0112.
In the case of AUCUACAGCUUGCUAGGUATT against SLC26A10, the median seed-adjusted z-score is reported as inactive: -0.169.
For GCCCAGUUGUUUGCUAUCATT against FSTL1, the median seed-adjusted z-score was inactive: 0.503.
With GGAAUGACAAGGAACUAUATT against BCO2 the median seed-adjusted z-score was inactive: -0.183.
In the case of GGCUCGCUUCAAUGACAUATT against ADAM29, the median seed-adjusted z-score is reported as inactive: 0.904.
In the case of GGGAAGAUUUCAUCCUUAATT against MVK, the median seed-adjusted z-score is reported as inactive: -0.192.
In the case of UGCACGUGGUGUAACCUCATT against TNFRSF4, the median seed-adjusted z-score is reported as inactive: 0.311.
With CCUAUACUGUGGGCUAUAATT against STARD4 the median seed-adjusted z-score was inactive: 0.173.
For GGAUCUCAGUCAAAGGCAUTT against CPZ, the median seed-adjusted z-score was inactive: -0.0748.
With GCUCCGAGGGUAUCAAGUATT against AP1M2 the median seed-adjusted z-score was inactive: 0.0641.
For ACCAAAUGAUGACCACCAATT against CHRNA2, the median seed-adjusted z-score was inactive: -0.513.
For CCUCAGGUGCAGAAAGUCATT against GAL3ST2, the median seed-adjusted z-score was inactive: 0.
With AGAAGGUUCAGGACCUAGATT against ACE the median seed-adjusted z-score was inactive: 0.0874.
In the case of CGAUUACAGUGCCCAGGAUTT against NEBL, the median seed-adjusted z-score is reported as inactive: 0.0769.
In the case of CACCUACAUCAACAUAAAATT against ZNF714, the median seed-adjusted z-score is reported as inactive: 0.
With CGAUCAUCCGGACAUCAAATT against ALDH6A1 the median seed-adjusted z-score was inactive: -0.0908.
With GACUAGUACUUACGGCUUUTT against RBM15 the median seed-adjusted z-score was inactive: -0.409.
In the case of GGACAGAUCUGCAAAGAGATT against CETP, the median seed-adjusted z-score is reported as inactive: 0.
For CCACCGAUAUUUCCUGGAATT against RNASEH2A, the median seed-adjusted z-score was inactive: -0.158.
In the case of CAAGAAUGACUGUGAUGAATT against PLA2G12A, the median seed-adjusted z-score is reported as inactive: 0.139.
In the case of GAAUGGUUUUCUUAGCAUATT against GNG4, the median seed-adjusted z-score is reported as inactive: -0.188.
In the case of GAGACACGGUGUAUGAAGATT against MYO5B, the median seed-adjusted z-score is reported as inactive: -0.212.
In the case of CUCUACGAAUGGUUACCGATT against PSMD12, the median seed-adjusted z-score is reported as inactive: 0.956.
With CCAUCCCAGCUAUCCUGUUTT against CCL21 the median seed-adjusted z-score was inactive: -0.227.
In the case of GGUGCUUACAACUGACUAATT against TLR6, the median seed-adjusted z-score is reported as inactive: 0.505.
With GGUUGAUACCCAAAGAUCATT against POLB the median seed-adjusted z-score was inactive: 0.376.
For GGAAUACCUAAACUUCGAATT against MUT, the median seed-adjusted z-score was inactive: 0.333.
With CCCUCUUGGUGUUCGACUATT against CDH3 the median seed-adjusted z-score was inactive: -0.138.
In the case of CAAUGGUACCUAUGACUAUTT against ALG3, the median seed-adjusted z-score is reported as inactive: -0.446.
For GCAAGACAGAGAUCACGGATT against KRT13, the median seed-adjusted z-score was inactive: 0.101.
With CCAUCAUCCAGAGACGAAATT against ANGPTL7 the median seed-adjusted z-score was inactive: 0.
For ACAUGUACUUCCUGAUUGATT against SLC11A1, the median seed-adjusted z-score was inactive: -0.516.
For CAACAACUCUGACAAAUCATT against ZNF385B, the median seed-adjusted z-score was inactive: 0.446.
With CGUAUAAGUUGGUAACAGATT against PCDHGB5 the median seed-adjusted z-score was inactive: 0.464.
In the case of CCUCCUUGUUAGUGUCUUUTT against CLEC11A, the median seed-adjusted z-score is reported as active: -1.1.
For GUACAAGGCCUGUAAAGUATT against KLC2, the median seed-adjusted z-score was inactive: 0.0706.
In the case of ACAAUGAAGUUCUCCCUGATT against PCGF1, the median seed-adjusted z-score is reported as inactive: 0.508.
In the case of GGAUUUUGACGACGAGUUUTT against FNBP1, the median seed-adjusted z-score is reported as inactive: -0.168.
With CGAGAAUGACUAUCUUCAATT against STK32C the median seed-adjusted z-score was inactive: -0.311.
In the case of GCAAACUGGUUCUUUCGGATT against CALCB, the median seed-adjusted z-score is reported as inactive: 0.
In the case of GCAUUAUACGGACCUCGGATT against MMP20, the median seed-adjusted z-score is reported as inactive: 0.0623.
For GGGAAGAUAUUUGUCAGCATT against PLXNA2, the median seed-adjusted z-score was inactive: 0.308.
For GCUGAAACUUGUCACAUCATT against TXNDC8, the median seed-adjusted z-score was inactive: -0.281.
For CGAGCUGACUUCAACAGGATT against STC1, the median seed-adjusted z-score was active: -1.36.
For CCAGCUCCUCUACGCCUUUTT against TRIB3, the median seed-adjusted z-score was inactive: 0.00635.
With GUUUCGGACCUAUCUCUGATT against RBM3 the median seed-adjusted z-score was inactive: 0.0539.
With GGCUGUACUGGGUCGAACATT against F2RL3 the median seed-adjusted z-score was inactive: 0.133.
With GAAGUCACGUCACUACUUATT against ZNF644 the median seed-adjusted z-score was inactive: 0.389.
With GUAUCGACAUCAUUCAAGATT against YME1L1 the median seed-adjusted z-score was inactive: 0.131.
For CGUCUCCUUCCUUAACGAATT against TRPV3, the median seed-adjusted z-score was inactive: -0.228.
For GAGAGAUGCCCUACACUAATT against FLJ16165, the median seed-adjusted z-score was inactive: -0.404.
With GACUGUAUCCAAACGAAUUTT against SLITRK2 the median seed-adjusted z-score was inactive: -0.246.
With AAAGGAGUGUGGAAACUUATT against ADAT1 the median seed-adjusted z-score was inactive: 0.404.
In the case of UGGUCAUUAUGAUUAGCUATT against RNF149, the median seed-adjusted z-score is reported as inactive: -0.17.
In the case of GAGAGACAAUCUUCAUGCATT against PADI1, the median seed-adjusted z-score is reported as inactive: 0.
